# Library screen at single concentrations

Amino acid sequences for entries named in this document (tags omitted). Residues count along the entry.
UniProt Q8IDJ8, 1-583: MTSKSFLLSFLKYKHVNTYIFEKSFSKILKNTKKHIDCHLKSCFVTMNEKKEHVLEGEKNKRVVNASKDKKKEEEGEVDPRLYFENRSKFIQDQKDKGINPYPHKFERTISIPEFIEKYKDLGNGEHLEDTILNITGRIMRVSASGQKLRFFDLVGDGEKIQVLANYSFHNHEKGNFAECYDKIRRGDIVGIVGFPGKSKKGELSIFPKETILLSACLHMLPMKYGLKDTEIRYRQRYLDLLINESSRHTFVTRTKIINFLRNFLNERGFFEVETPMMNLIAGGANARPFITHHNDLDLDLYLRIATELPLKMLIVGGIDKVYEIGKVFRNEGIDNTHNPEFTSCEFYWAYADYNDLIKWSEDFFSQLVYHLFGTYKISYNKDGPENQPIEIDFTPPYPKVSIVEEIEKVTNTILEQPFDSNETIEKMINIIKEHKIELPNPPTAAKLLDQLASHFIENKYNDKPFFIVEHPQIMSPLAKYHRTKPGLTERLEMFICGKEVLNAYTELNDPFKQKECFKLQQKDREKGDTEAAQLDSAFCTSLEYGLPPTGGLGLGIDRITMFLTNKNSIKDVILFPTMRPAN
UniProt P9WPC5, whole entry: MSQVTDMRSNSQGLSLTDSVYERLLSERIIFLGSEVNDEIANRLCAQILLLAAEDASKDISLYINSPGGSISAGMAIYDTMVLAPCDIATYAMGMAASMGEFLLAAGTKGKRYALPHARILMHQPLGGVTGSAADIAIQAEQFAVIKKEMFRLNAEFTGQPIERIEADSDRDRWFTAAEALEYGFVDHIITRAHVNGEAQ
UniProt P9WPC3, whole entry partner: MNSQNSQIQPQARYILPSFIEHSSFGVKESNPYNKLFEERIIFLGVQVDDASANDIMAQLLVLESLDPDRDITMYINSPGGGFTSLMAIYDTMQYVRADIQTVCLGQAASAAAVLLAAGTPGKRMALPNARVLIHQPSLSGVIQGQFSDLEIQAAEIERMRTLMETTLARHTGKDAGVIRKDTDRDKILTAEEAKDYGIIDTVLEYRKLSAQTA
UniProt P9WFT3, whole entry: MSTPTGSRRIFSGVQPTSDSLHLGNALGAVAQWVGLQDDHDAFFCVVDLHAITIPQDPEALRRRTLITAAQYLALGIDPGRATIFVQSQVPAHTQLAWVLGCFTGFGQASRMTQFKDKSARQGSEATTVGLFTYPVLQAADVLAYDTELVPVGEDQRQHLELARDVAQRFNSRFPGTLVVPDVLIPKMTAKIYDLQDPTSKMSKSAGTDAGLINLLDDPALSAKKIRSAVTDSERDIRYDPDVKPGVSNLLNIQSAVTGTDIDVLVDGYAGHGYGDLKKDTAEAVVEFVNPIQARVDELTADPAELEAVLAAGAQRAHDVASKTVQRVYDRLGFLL

Data taken from ChEMBL document CHEMBL3988442, “University of Dundee, Small-Polar-MMV Screening Library” (2021).

Values are the deposited “Percent Effect”, in %. The record does not define 0% and 100%; most values in the screen are far below 50% and negative numbers occur (in some assays of this library far below -100). The compounds are a random part of those screened. A dash means the value is not listed here; it may have been measured.

PfKRS1: 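Lysine-tRNA ligase, Plasmodium falciparum 3D7 (UniProt Q8IDJ8). Enzyme assay of the cytosolic lysyl-tRNA synthetase in 384-well plates, read by luminescence. Concentration: 30 µM. Higher reads as stronger inhibition, judged from the few compounds that gave an IC50. Of about 69,000 compounds tested this way, about 49 (0.071%) reached 50% or more in at least one test.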
ClpP1P2: 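ClpP1P2, Mycobacterium tuberculosis (UniProt P9WPC5 and UniProt P9WPC3). Protease assay of ClpP1P2, read by the AMC dye that it sets free. Concentration: 50 µM. Direction is inferred from only a few compounds that gave an IC50; most scored high, so higher reads as stronger inhibition. Most other retested compounds had strongly negative values. About 69,000 compounds were tested under these conditions; 0.015% (about 10) showed 50% or more at least once.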
MtTrpRS: 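Tryptophan-tRNA ligase, Mycobacterium tuberculosis (UniProt P9WFT3). Enzyme assay of tryptophanyl-tRNA synthetase; the read-out is not stated. Tested at 10 µM. Direction is not recorded; retested compounds ran higher, which suggests that high means inhibition. Of about 65,000 compounds tested this way, about 64 (0.098%) reached 50% or more in at least one test.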

Compound,PfKRS1,ClpP1P2,MtTrpRS
CN(C(=O)c1ccccc1Cl)C1CCN(c2ccccn2)CC1,3.168%,9.69%,-6.02%
O=C(c1nn(-c2ccccc2F)cc1O)N1CCCSCC1,0.6591%,-10.72%,3.247%
OCC1CCCN1c1cc(NCc2cc3ccccc3o2)ncn1 (centres unmarked),8.061%,-3.821%,2.855%
CN(C)C(=O)CCN1CC(c2ccccc2)(c2ccccc2)CCC1=O,-2.552%,5.968%,-2.948%
COc1cccc(-n2nnc(C(=O)N3CCCC(C)C3)c2C)c1 (centres unmarked),1.787%,-27.29%,-1.872%
Cc1cc(N2CCN(C(=O)c3cnn(C(C)C)c3)CC2)cc(C)n1,-2.541%,11.95%,-1.771%
CSc1ccsc1C(=O)NS(=O)(=O)c1ccc(F)cc1,6.968%,-20.9%,6.321%
CCOCC1CCN(C(=O)c2sc(C)cc2OC(F)F)CC1,-0.1451%,13.26%,-3.849%
Cc1nc(Nc2cnccn2)cc(C2CCN(c3ncccn3)C2)n1 (centres unmarked),-0.1902%,-8.848%,-
CCC(C)(C)NC(=O)Cn1nnc(CN(C)C(=O)c2ccccc2)n1,5.627%,-4.607%,3.047%
O=C(c1cccc(CN2CCCC2)c1)N1CCCC(n2cncn2)C1 (centres unmarked),4.985%,20.48%,-2.582%
Cc1noc(C)c1-c1ccnc(C2CCN(C3CCOCC3)CC2)c1,0.9724%,7.607%,11.61%
COC[C@]12COC[C@H]1CN(C(=O)C1CCSCC1)C2,2.274%,-2.556%,-4.575%
CN(CC(=O)Nc1cc(C(F)(F)F)c[nH]c1=O)Cc1ccccc1,3.383%,4.246%,-6.762%
c1cnn(C2CN(Cc3nc(-c4ccsc4)no3)C2)c1,-1.904%,8.65%,-1.73%
Cn1ncc(C(=O)O)c1C(=O)Nc1nc2ccc(Br)cc2s1,-1.793%,-7.33%,-15.41%
CN1CCN(S(=O)(=O)c2ncn(C)c2Cl)CC1,1.28%,3.4%,0.6173%
CC1CN(C)CCN1C(=O)Cc1cc(Cl)c2c(c1)OCCO2 (centres unmarked),2.276%,-1.069%,-4.918%
Cc1nc(NC(=O)c2c3c(nn2C2CCS(=O)(=O)C2)CCC3)sc1C (centres unmarked),4.899%,6.022%,-0.2681%
CCCc1nc(C)cc(NC(C)Cc2cnccn2)n1 (centres unmarked),2.968%,-32.76%,-2.315%
O=C(NCCC1CC1)NCc1cccc(-n2ccnc2)c1,5.852%,-6.056%,1.84%
Cc1ccccc1N1CCN(C(=O)Cc2ccc3c(c2)OCO3)CC1=O,5.798%,-5.217%,3.006%
Cc1ccc(CN2CCC3(C2)C(=O)N(CC(N)=O)c2ccccc23)s1 (centres unmarked),2.425%,-17.96%,-2.021%
CCCC(=O)N1CCN(c2cc(-n3cnc(C)c3C)nc(C)n2)CC1,-1.066%,-10.53%,-3.636%
Cn1ccnc1CN1CCN(CC(O)c2ccco2)CC1 (centres unmarked),6.738%,10.7%,4.457%
O=C(Cn1nc2c(cc1=O)CCCC2)N[C@@H](C(=O)O)c1ccccc1,7.965%,4.915%,-0.201%
COCCN1CCCC(c2ncc(C(=O)N3CCOCC3)c(C)n2)C1 (centres unmarked),0.5187%,3.551%,-0.3903%
Cc1nc(C2CCCN(C(=O)c3ccc(N4CCCC4)nn3)C2)no1 (centres unmarked),-0.3796%,-19.01%,-4.023%
c1cc(CO[C@H]2CC[C@H]3[C@H]2OCCN3Cc2nccs2)ccn1,0.2249%,2.747%,-
COC(=O)N1CCCC(C(=O)NCCc2c[nH]c3cc(C)ccc23)C1 (centres unmarked),1.766%,-3.974%,3.055%
COc1ccc(Br)cc1CN(C)c1nc2c(cnn2C)c(=O)[nH]1,10.75%,10.51%,2.178%
COc1cccc(CNC(CN2CCN(C)CC2)c2ccccc2)c1 (centres unmarked),6.058%,-13.23%,5.365%
CC(Cc1ccc(C(F)(F)F)cc1)C(=O)N1CCCS1(=O)=O (centres unmarked),4.018%,-1.798%,-2.414%
Cc1cc(NC(=O)C(C)Nc2cccc(COCc3ccco3)c2)on1 (centres unmarked),3.002%,-2.395%,1.075%
CC(C)c1nsc(N2CCC(OCCN3CCOCC3)CC2)n1,2.577%,-7.888%,-0.6798%
O=C(c1cncs1)N1CCC(Cc2cnc3[nH]ccc3c2)CC1,0.4964%,-4.686%,-
CN(C)C(CNC(=O)c1nc(N2CCOCC2)ncc1Cl)c1cccs1 (centres unmarked),2.857%,7.31%,0.8256%
Cn1ccnc1-c1cnn(CC(=O)Nc2ccnn2C)c1,-0.1329%,-12.53%,0.9441%
CC(=O)c1ccccc1C(=O)NCC1(CO)CC1,-7.493%,6.531%,0.6966%
CN(C)CCOCC1CN(C(=O)c2ccnnc2)Cc2ccnn2C1 (centres unmarked),4.86%,-8.645%,-2.278%
O=C1NCCN1C1CCN(Cc2nc(-c3ccc(F)cc3)no2)CC1,0.9902%,0.9834%,-2.921%
CC(=O)N[C@@H]1CN(Cc2nc3ccccc3[nH]2)C[C@H]1c1ccc(C)o1,6.059%,-8.986%,-1.625%
CC(C)(C)n1ncc2c(=O)[nH]c(NC3CC=CC3)nc21,1.604%,-0.7863%,-2.873%
Cc1cccc2c1cnn2CCCNC(=O)c1cnn(C)c1,-1.423%,1.368%,-2.85%
O=C(c1ccncc1)N1CCCC2(COCCN(c3ccccc3)C2)C1 (centres unmarked),8.573%,-9.998%,4.89%
COCc1nc(CNC2CCCc3c2cnn3C(C)(C)C)cs1 (centres unmarked),1.64%,-3.506%,5.16%
CCC(CC)C(=O)N1CCCc2c(cnn2C)C1,0.5264%,-3.368%,-10.92%
CC1N(C)C(=O)COC12CCN(C(=O)Cc1ccsc1)CC2 (centres unmarked),3.13%,-3.311%,2.913%
O=C(NCC(F)F)c1cc(-c2ccccc2)nc2ncnn12,2.763%,-11.34%,-2.867%
Cc1cn2c(n1)CCC(NS(=O)(=O)c1ccc(C)s1)C2 (centres unmarked),-1.146%,-11.3%,-3.865%
CC(C)c1noc(CCC(=O)NC(C)c2ccccn2)n1 (centres unmarked),0.9068%,-23.94%,-6.089%
Cc1nc(C2NC3(CCCC3)C(=O)N2CC2CC2)cs1 (centres unmarked),2.813%,-8.559%,2.151%
Cc1nc(-c2ccc(Cl)s2)sc1C(=O)NCCCC(N)=O,0.6997%,-296.6%,-7.837%
NCC(CO)Cc1ccc(C(F)(F)F)cc1 (centres unmarked),-5.077%,-7.859%,9.305%
COc1cc(CNC(=O)Nc2nnc(C(C)C)s2)ccc1O,6.429%,4.543%,0.9909%
Fc1cccc(-c2nnn3c2COC(CNCc2nccs2)C3)c1 (centres unmarked),1.271%,5.574%,8.749%
O=C(NCc1ccc(-n2cncn2)nc1)c1cc(Cl)ccn1,-0.355%,18.71%,-0.3028%
c1ccc(CN2CCCC[C@H]3CN(c4ncccn4)C[C@H]32)cc1,0.4005%,-30.11%,-7.815%
CCc1ccsc1C(=O)N1CCN(CC(C)(C)O)CC1,3.613%,-3.513%,-0.8946%
CCc1nc(CNC(=O)c2ccc(C(C)N3CCCCC3)o2)cc(=O)[nH]1 (centres unmarked),-1.969%,-9.436%,4.62%
Cc1cnc(CN(C)C2CCN(CCn3cc(C#N)cn3)C2)o1 (centres unmarked),0.3131%,7.249%,-1.956%
CCC(NC(=O)c1cc(CC(C)C)nn1C)c1cc(C)ccn1 (centres unmarked),5.721%,-19.82%,-5.383%
COc1ccc(-n2cnnc2SCC(=O)N(C)C(C)C)cn1,4.14%,1.223%,4.127%
CSCC(=O)N1CCN(CC(O)C(C)(C)C)CC1 (centres unmarked),0.1155%,-8.069%,-1.563%
CCN1CCCC(c2c(-c3ccccc3)ncn2CC(N)=O)C1 (centres unmarked),3.321%,10.07%,5.253%
CCOCC1CN(Cc2cccnc2)Cc2nn(C)cc21 (centres unmarked),7.918%,1.691%,2.267%
Cc1cc(C[C@@H]2COC[C@@H]2NC(=O)CN2CCOC2=O)on1,3.602%,0.4638%,-1.71%
O=C1CN(c2ccc(CNC(=O)NCc3ccoc3)cc2)CCN1,1.987%,-2.145%,2.337%
COCc1cc(NCCc2ccc(F)cc2)n2nccc2n1,0.8462%,-4.61%,-3.207%
Cc1cc(C(=O)NC(COCC(C)C)c2ccco2)no1 (centres unmarked),0.1906%,-29.22%,-1.977%

Some entries from above, unchanged:

Compound,PfKRS1,ClpP1P2,MtTrpRS
CSc1ccsc1C(=O)NS(=O)(=O)c1ccc(F)cc1,6.968%,-20.9%,6.321%
Cc1cc(C(=O)NC(COCC(C)C)c2ccco2)no1 (centres unmarked),0.1906%,-29.22%,-1.977%
Cc1nc(-c2ccc(Cl)s2)sc1C(=O)NCCCC(N)=O,0.6997%,-296.6%,-7.837%
CN(C)C(CNC(=O)c1nc(N2CCOCC2)ncc1Cl)c1cccs1 (centres unmarked),2.857%,7.31%,0.8256%
CCCC(=O)N1CCN(c2cc(-n3cnc(C)c3C)nc(C)n2)CC1,-1.066%,-10.53%,-3.636%